Some results were stated once for a whole list of compounds, not compound by compound.
How the values were obtained:
[1] = tested on: PBMC from RhD-alloimmunised donors; test: celELISA of cytokine production (IL-10, TGF-β1) by PBMC from RhD alloimmunised donors; type: cell-based, human; settings: celELISA 5 days after stimulation; for percentage of donors whose PBMC produced significant IL-10: FIG. 10; for percentage of donors whose PBMC produced significant TGF-β1: FIG. 11
Method: (§1) Cultured T-cells are stimulated with each of the epitopes given in Table 1 and after 5 days the responding cells were transferred to flat-bottomed microtitre plates (96-well Nunc-Immuno Maxisorp) coated with […] per well of monoclonal anti-cytokine capture antibody diluted in 0.05M alkaline carbonate coating buffer pH 9.6. Unbound capture antibody was removed by two washes with HBSS and non-specific binding potential blocked by incubation with 200 μl per well of phosphate buffered saline, pH 7.4 (PBS containing 3% BSA).
(§2) Five days after stimulation, lymphocyte cultures were mixed to resuspend the cells and duplicate 100 μl aliquots were transferred into wells coated with the respective capture antibody specific for IFN-γ, IL-10 or TGF-β. The plates coated with capture antibodies and layered by lymphocytes were then incubated for a further 24 hours at 37° C. in a humidified atmosphere of 5% CO2 and 95% air. After this incubation the PBMC were removed by four washes with 0.2% Tween/PBS. One hundred microlitre aliquots of the appropriate biotinylated monoclonal detection antibody in 0.2% BSA/PBS were then added to the wells and incubated at room temperature for 45 minutes.
(§3) After six washes with 0.5% Tween/PBS, 100 μl of 1:100,000 ExtrAvidin-alkaline phosphatase conjugate (Sigma) was then added to each of the wells and incubated at room temperature for 30 minutes. The ExtrAvidin conjugate was removed by eight washes with 0.2% Tween/PBS, and the plates developed using 100 μl per well of p-nitrophenyl phosphate (Sigma) 1.0 mg/ml in 0.05M carbonate alkaline buffer pH9.6. The absorbance at 405 nm was then measured using a Multiscan plate reader (Labsystems Basingstoke UK).
(§4) Cytokine secretion was measured by interpolation from a standard curve generated by incubating duplicate wells with doubling dilutions of recombinant human IFN-γ or IL-10 or TGF-β (Pharmingen). The standard curves were modelled by a smoothed cubic spline function applied to the absorbance reading and the cytokine concentrations after a quasilogarithmic transformation, where: quasiloge(z)=loge[z+{square root}[z^2+1]).
Using celELISA technique, the 68 RhD peptide panel was screened for the ability to induce IL-10 and TGF-β production for PBMC from a total of 19 samples from 12 different alloimmune donors. PMBC from 10 out of the 12 RhD-alloimmunised donors could produce IL-10 to at least one of the RhD peptides on at least one occasion, with a total of 194 significant IL-10 responses to the RhD peptides between all the donors. The RhD peptides that induced significant TGF-β or IL-10 and proliferative responses from PBMC in all the samples screened are summarised in FIGS. 10 and 11.

[2] = tested on: PBMC from AIHA patients; test: celELISA of cytokine production by PBMC from AIHA patients; type: cell-based, human; settings: AIHA patients (11); 42 of the 68 RhD peptides tested; FIG. 21
Method: as §1, §2, §3, §4
The same 68 RhD peptide panel as used in Example 1.3 was used in the present Example. Further, the same experimental protocols used in Examples 1.3.
Using the celELISA technique, 42 of the 68 RhD peptide panel were screened for the ability to induce IL-10 production from PBMC from 11 patients with AIHA.

Sequence	percentage of donors whose PBMC produced significant IL-10 [1] [%]	percentage of patients whose PBMC produced significant IL-10 [2] [%]	percentage of donors whose PBMC produced significant TGF-β1 [1] [%]
MVLVEVTALGNLRMV (Residue 142-156 RhD; listed as Homo sapiens) [compound 21]	≥ 20	> 20	–
SAVLAGGVAVGTSCH (Residue 272-286 RhD; listed as Homo sapiens) [peptide 46]	–	–	≥ 20
QVLLSIGELSLAIVI (Residue 362-376 RhD; listed as Homo sapiens) [compound 61]	≥ 20	–	–
LLTGLLLNLKIWKAP (Residue 382-396 RhD; listed as Homo sapiens) [compound 63]	≥ 20	–	–
LLNLKIWKAPHEAKY (Residue 387-401 RhD; listed as Homo sapiens) [compound 64]	≥ 20	–	≥ 20
TMSALSVLISVDAVL (Residue 117-131 RhD; listed as Homo sapiens) [peptide 17]	≥ 20	–	–
SLAHPQGKISKTYVH (Residue 257-271 RhD; listed as Homo sapiens) [compound 43]	≥ 20	–	≥ 20
KTYVHSAVLAGGVAV (Residue 267-281 RhD; listed as Homo sapiens) [compound 45]	≥ 20	–	≥ 20
GGAKYLPGCCNRVLG (Residue 307-321 RhD; listed as Homo sapiens) [compound 51]	–	–	≥ 20
SSFRRHSWSSVAFNL (Residue 67-81 RhD; listed as Homo sapiens) [compound 9]	≥ 20	–	–
FLSQFPSGKVVITLF (Residue 97-111 RhD; listed as Homo sapiens) [peptide 13]	≥ 20	–	–
WMFWPSFNSALLRSP (Residue 217-231 RhD; listed as Homo sapiens) [compound 36]	≥ 20	–	–
ILLDGFLSQFPSGKV (Residue 92-106 RhD; listed as Homo sapiens) [compound 12]	≥ 20	> 20	≥ 20
DDQVFWKFPHLAVGF (Residue 403-417 RhD; listed as Homo sapiens) [compound 68]	≥ 20	–	–
ISNIFNTDYHMNMMH (Residue 157-171 RhD; listed as Homo sapiens) [compound 24]	–	–	≥ 20
IERKNAVFNTYYALA (Residue 232-246 RhD; listed as Homo sapiens) [compound 39]	–	> 20	–
SFNSALLRSPIERKN (Residue 222-236 RhD; listed as Homo sapiens) [compound 37]	–	–	≥ 20
VTALGNLRMVISNIF (Residue 147 - 161 RhD; listed as Homo sapiens) [compound 22]	≥ 20	–	–
VITLFSIRLATMSAL (Residue 107-121 RhD; listed as Homo sapiens) [compound 15]	≥ 20	–	–
GKVNLAQLVVMVLVE (Residue 132-146 RhD; listed as Homo sapiens) [compound 20]	≥ 20	–	–
QGKISKTYVHSAVLA (Residue 262-276 RhD; listed as Homo sapiens) [compound 44]	–	> 20	–

Sequence	percentage of donors whose PBMC produced significant IL-10 [1] [%]	percentage of patients whose PBMC produced significant IL-10 [2] [%]	percentage of donors whose PBMC produced significant TGF-β1 [1] [%]
MNMMHIYVFAAYFGL (Residue 167-181 RhD; listed as Homo sapiens) [compound 26]	≥ 20	–	–
THYDASLEDQKGLVA (Residues 32-46 RhD; listed as Homo sapiens) [peptide 4]	–	–	≥ 20
SVAWCLPKPLPEGTE (Residue 182-196 RhD; listed as Homo sapiens) [compound 29]	–	–	≥ 20
HSWSSVAFNLFMLAL (Residue 72-86 RhD; listed as Homo sapiens) [compound 10]	≥ 20	–	–
LPGCCNRVLGIPHSS (Residue 312-326 RhD; listed as Homo sapiens) [compound 52]	–	–	≥ 20
HEAKYFDDQVFWKFP (Residue 397-411 RhD; listed as Homo sapiens) [compound 66]	≥ 20	–	–
GTSCHLIPSPWLAMV (Residue 282-296 RhD; listed as Homo sapiens) [compound 47]	–	–	≥ 20
IWKAPHEAKYFDDQV (Residue 392-406 RhD; listed as Homo sapiens) [compound 65]	≥ 20	–	–
LSAMLGALFLWMFWP (Residue 207-221 RhD; listed as Homo sapiens) [compound 34]	≥ 20	–	≥ 20
MAAIGLGFLTSSFRR (Residue 57-71 RhD; listed as Homo sapiens) [compound 7]	≥ 20	–	–
LVLDTVGAGNGMIGF (Residue 347-361 RhD; listed as Homo sapiens) [compound 59]	≥ 20	–	–
IYIVLLVLDTVGAGN (Residue 342-356 RhD; listed as Homo sapiens) [compound 58]	≥ 20	–	≥ 20
ATIPSLSAMLGALFL (Residue 202-216 RhD; listed as Homo sapiens) [compound 33]	–	–	≥ 20
AALILLFYFFTHYDA (Residue 22- 36 RhD; listed as Homo sapiens) [compound 3]	≥ 20	–	≥ 20
GALFLWMFWPSFNSA (Residue 212-226 RhD; listed as Homo sapiens) [compound 35]	≥ 20	–	≥ 20
PSGKVVITLFSIRLA (Residue 102-116 RhD; listed as Homo sapiens) [compound 14]	≥ 20	–	≥ 20
IPHSSIMGYNFSLLG (Residue 322-336 RhD; listed as Homo sapiens) [compound 54]	≥ 20	–	≥ 20
NLRMVISNIFNTDYH (Residue 152 - 166 RhD; listed as Homo sapiens) [compound 23]	–	> 20	–
AYFGLSVAWCLPKPL (Residue 177-191 RhD; listed as Homo sapiens) [peptide 28]	≥ 20	–	–
FMLALGVQWAILLDG (Residue 82-96 RhD; listed as Homo sapiens) [compound 11]	≥ 20	–	≥ 20

Reference: patent US20050069544A1, “Pharmaceutical composition and a method of treatment” (priority 1998, published 2005)
